This assay addresses Tie2 receptor on HUVEC (human, UniProt Q02763 23-1124). As to the kind of experiment: summary of Example 3 (co-IP and HUVEC treatment).

The chains behind the UniProt entries cited, without tags or fusion partners. Residues count along the entry.
UniProt Q02763, residues 23-1124: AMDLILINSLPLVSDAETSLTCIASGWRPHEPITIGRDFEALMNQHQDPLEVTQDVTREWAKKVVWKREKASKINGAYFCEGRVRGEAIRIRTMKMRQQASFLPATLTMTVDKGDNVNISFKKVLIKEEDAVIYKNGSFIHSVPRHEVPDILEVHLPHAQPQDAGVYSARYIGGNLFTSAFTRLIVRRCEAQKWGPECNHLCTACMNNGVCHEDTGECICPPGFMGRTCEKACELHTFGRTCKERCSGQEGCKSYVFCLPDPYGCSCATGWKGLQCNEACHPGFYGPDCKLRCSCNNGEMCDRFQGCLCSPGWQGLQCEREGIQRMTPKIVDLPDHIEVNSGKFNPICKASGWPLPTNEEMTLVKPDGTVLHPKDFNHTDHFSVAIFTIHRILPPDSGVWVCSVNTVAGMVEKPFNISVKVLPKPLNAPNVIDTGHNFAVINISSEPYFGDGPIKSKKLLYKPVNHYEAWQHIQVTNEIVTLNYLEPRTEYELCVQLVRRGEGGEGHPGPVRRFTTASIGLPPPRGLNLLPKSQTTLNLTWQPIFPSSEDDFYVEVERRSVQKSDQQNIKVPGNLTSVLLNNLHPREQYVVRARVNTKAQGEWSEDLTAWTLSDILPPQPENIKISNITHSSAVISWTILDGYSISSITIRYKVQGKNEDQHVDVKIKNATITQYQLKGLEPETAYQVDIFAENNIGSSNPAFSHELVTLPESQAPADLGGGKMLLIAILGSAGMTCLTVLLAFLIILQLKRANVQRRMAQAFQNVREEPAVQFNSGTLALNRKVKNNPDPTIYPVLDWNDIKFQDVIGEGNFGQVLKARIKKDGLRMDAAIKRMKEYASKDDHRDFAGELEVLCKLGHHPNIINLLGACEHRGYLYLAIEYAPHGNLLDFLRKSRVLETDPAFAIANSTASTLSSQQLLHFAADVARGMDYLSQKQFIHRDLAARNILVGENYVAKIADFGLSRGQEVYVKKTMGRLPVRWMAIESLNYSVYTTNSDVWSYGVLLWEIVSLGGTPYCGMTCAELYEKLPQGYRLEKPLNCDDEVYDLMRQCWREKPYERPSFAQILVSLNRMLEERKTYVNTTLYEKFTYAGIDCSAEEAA

We go through two molecules from US20230103583A1 (NORTHWESTERN UNIVERSITY, published 2023).

These are yes or no findings as the source states them, for the method shown. Binding seen in cells or lysates may run through a third protein. Some results given as binding are weak or reduced against the parent protein; the word gives no strength.

B1: ANG1-C4BP (ligand)
chain: KPFRDCADVYQAGFNKSGIYTIYINNMPEPKKVFCNMDVNGGGWTVIQHREDGSLDFQRGWKEYKMGFGNPSGEYWLGNEFIFAITSQRQYMLRIELMDWEGNRAYSQYDRFHIGNEKQNYRLYLKGHTGTAGKQSSLILHGADFSTKDADNDNCMCKCALMLTGGWWFDACGPSNLNGMFYTAGQNHGKLNGIKWHYFKGPSYSLRSTTMMIRPLDFGGGGSETPEGCEQVLTGKRLMQCLPNPEDVKMALEVYKLSLEIEQLELQRDSARQSTLDKELHHHHHH
With B1, the binding result is “binds”.

B2: C4BP-ANG1 (ligand)
chain: ETPEGCEQVLTGKRLMQCLPNPEDVKMALEVYKLSLEIEQLELQRDSARQSTLDKELGGGGSKPFRDCADVYQAGFNKSGIYTIYINNMPEPKKVFCNMDVNGGGWTVIQHREDGSLDFQRGWKEYKMGFGNPSGEYWLGNEFIFAITSQRQYMLRIELMDWEGNRAYSQYDRFHIGNEKQNYRLYLKGHTGTAGKQSSLILHGADFSTKDADNDNCMCKCALMLTGGWWFDACGPSNLNGMFYTAGQNHGKLNGIKWHYFKGPSYSLRSTTMMIRPLDFHHHHHH
As for B2, the binding result is listed as “binds”.
